Binding data for 19 molecules are collected here from publication PMC5770965, “pKID Binds to KIX via an Unstructured Transition State with Nonnative Interactions” (Biophysical Journal, 2017).

Amino acid sequences for entries named in this document (tags omitted). Residues count along the entry.
UniProt P45481, residues 586-666: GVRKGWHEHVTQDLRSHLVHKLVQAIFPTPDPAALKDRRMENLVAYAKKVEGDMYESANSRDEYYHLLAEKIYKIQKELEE

For experiment [1], the target named is KIX domain of CBP (UniProt P45481). Put plainly: fluorescence polarisation; equilibrium fluorescence anisotropy of N-terminally FITC-labelled pKID peptides with KIX; buffer and conditions as in the accompanying article (ref. 42); both purified. In general terms: Fluorescence polarisation rises when a labelled molecule tumbles more slowly, as on binding a larger partner.

For experiment [2] the target is unchanged. Nature of the experiment: stopped-flow fluorescence kinetics; association under pseudo-first-order conditions at different KIX concentrations (fast and slow phase); dissociation of FITC-pKID from KIX at different concentrations of unlabeled competitor; conditions as in the accompanying article (ref. 42); both ….
The target is the same in experiment [3]. Put plainly: fluorescence polarisation; equilibrium fluorescence anisotropy of N-terminally FITC-labelled pKID peptides with KIX; buffer and conditions as in the accompanying article (ref. 42); both purified. The source holds these as a separate data set.

Results are given in words; binding and its absence hold for the method and conditions named. Some entries that bind do so weakly or less than the wild type. Non-standard residues stand in square brackets, D forms with d. No end group written: not given here. *: point of attachment. FITC = O=C1OC2(c3ccc(O)cc3Oc3cc(O)ccc32)c2ccc(NC(=S)*)cc21; pS = N[C@@H](COP(=O)(O)O)C(=O)O

With “FITC-pKID wild-type peptide (CREB residues 116-146, phosphorylated) (from UniProt P15337-1 116-146)”, the binding result in experiment [1] and in experiment [2] was “binds” each time.

Consider DSVTDSQKRREILSRRPSYRKILNALSSDAP (peptide, UniProt P15337-1 116-146, FITC on the N-terminus; phosphoserine at 133) [FITC-pKID D140A], for which the binding entry in experiment [2] and in experiment [3] was “binds” each time.

As for DSVTDSQKRREILSRRASYRKILNDLSSDAP (peptide, UniProt P15337-1 116-146, FITC on the N-terminus; phosphoserine at 133) [FITC-pKID P132A (Ala mutant at 132)], the binding result in experiment [3] is “binds”.

As to DSVTDSQKRREILSRRPSYRGILNDLSSDAP (peptide, UniProt P15337-1 116-146, FITC on the N-terminus; phosphoserine at 133) [FITC-pKID K136G (Gly mutant at 136)], the binding entry in experiment [3] is reported as “binds”.

In the case of DSVTDSQKRREILSRAPSYRKILNDLSSDAP (peptide, UniProt P15337-1 116-146, FITC on the N-terminus; phosphoserine at 133) [FITC-pKID R131A], the binding result in experiment [2] and in experiment [3] was “binds” throughout.

Turning to DSVTDSQKRREIASRRPSYRKILNDLSSDAP (peptide, UniProt P15337-1 116-146, FITC on the N-terminus; phosphoserine at 133) [FITC-pKID L128A], the binding result in experiment [2] is recorded as “binds”.

For DSVTDSQKAREILSRRPSYRKILNDLSSDAP (peptide, UniProt P15337-1 116-146, FITC on the N-terminus; phosphoserine at 133) [FITC-pKID R124A], the binding result in experiment [2] and in experiment [3] was “binds” in each case.

For DSVTDSQKRREILSRRGSYRKILNDLSSDAP (peptide, UniProt P15337-1 116-146, FITC on the N-terminus; phosphoserine at 133) [FITC-pKID P132G (Gly mutant at 132)], the binding result in experiment [3] is “binds”.

On to DSVTDSQKRREILSRRPSYRKALNDLSSDAP (peptide, UniProt P15337-1 116-146, FITC on the N-terminus; phosphoserine at 133) [FITC-pKID I137A], for which, in experiment [2], the binding entry is recorded as “binds”.

For the molecule DSVTDSQKRAEILSRRPSYRKILNDLSSDAP (peptide, UniProt P15337-1 116-146, FITC on the N-terminus; phosphoserine at 133) [FITC-pKID R125A], the binding entry in experiment [2] and in experiment [3] was “binds” in each case.

Take DSVTDSQKRREILSRRPSYAKILNDLSSDAP (peptide, UniProt P15337-1 116-146, FITC on the N-terminus; phosphoserine at 133) [FITC-pKID R135A (Ala mutant at 135)]: the binding entry in experiment [3] is listed as “binds”.

With DSVTDSQKRREILSRRPSYRKIANDLSSDAP (peptide, UniProt P15337-1 116-146, FITC on the N-terminus; phosphoserine at 133) [FITC-pKID L138A], the binding result in experiment [2] is recorded as “binds”.

Consider DSVTDSQKRREILSRRPSYGKILNDLSSDAP (peptide, UniProt P15337-1 116-146, FITC on the N-terminus; phosphoserine at 133) [FITC-pKID R135G (Gly mutant at 135)], for which the binding entry in experiment [3] was “binds”.

With DSVTDSQKRRAILSRRPSYRKILNDLSSDAP (peptide, UniProt P15337-1 116-146, FITC on the N-terminus; phosphoserine at 133) [FITC-pKID E126A], the binding result in experiment [2] and in experiment [3] was “binds” throughout.

As for DSVTDSQKRREILSRRPSYRAILNDLSSDAP (peptide, UniProt P15337-1 116-146, FITC on the N-terminus; phosphoserine at 133) [FITC-pKID K136A (Ala mutant at 136)], the binding result in experiment [3] was “binds”.

B1: FITC-pKID S121A (peptide, UniProt P15337-1 116-146, looked up)
peptide: {FITC}-DSVTDAQKRREILSRRP[pS]YRKILNDLSSDAP
notes: source: synthetic peptide, bought: Biomatik
Consider B1, for which the binding entry in experiment [1] and in experiment [2] was “binds” throughout.

B2: FITC-pKID T119A (peptide, UniProt P15337-1 116-146, looked up)
peptide: {FITC}-DSVADSQKRREILSRRP[pS]YRKILNDLSSDAP
notes: as for B1
As to B2, the binding entry in experiment [2] was “binds”.

B3: FITC-pKID S142A (peptide, UniProt P15337-1 116-146, looked up)
peptide: {FITC}-DSVTDSQKRREILSRRP[pS]YRKILNDLASDAP
notes: as for B1
For the molecule B3, the binding result in experiment [1] and in experiment [2] was “binds” in each case.

B4: FITC-pKID T119G (peptide, UniProt P15337-1 116-146, looked up)
peptide: {FITC}-DSVGDSQKRREILSRRP[pS]YRKILNDLSSDAP
notes: the peptide has Gly in place of the natural Thr119; also called A119G; source: synthetic peptide, bought: Biomatik
As for B4, the binding result in experiment [2] is “binds”.
